Results are given in words; binding and its absence hold for the method and conditions named. Binding seen in cells or lysates may run through a third protein. Some results given as binding are weak or reduced against the parent protein; the word gives no strength.
Legend:
[1] = biological target: Recombinant murine 6xHis-PDCD10 Δ5KA mutant (K169A, K172A, K179A, K183A, K186A) (mouse) (UniProt Q8VE70); assay: pull-down; 10 µg His-tag recombinant WT or Δ5KA PDCD10 bound to CNBr-activated sepharose beads, incubated with 500 µg lysate of HEK293 cells transfected with FLAG-Krit1 and FLAG-OSM, 16 hours at 4°C, non-ionic detergent lysis buffer; immunoblot for FLAG and His; only the target purified
[2] = biological target: Recombinant murine 6xHis-PDCD10, wild type (mouse) (UniProt Q8VE70); assay: as above

By UniProt entry, the sequences of proteins in these tests, tags left out. Where a name states a change or a piece, a line headed by the entry shows the natural chain unless it says otherwise.
UniProt Q8VE70: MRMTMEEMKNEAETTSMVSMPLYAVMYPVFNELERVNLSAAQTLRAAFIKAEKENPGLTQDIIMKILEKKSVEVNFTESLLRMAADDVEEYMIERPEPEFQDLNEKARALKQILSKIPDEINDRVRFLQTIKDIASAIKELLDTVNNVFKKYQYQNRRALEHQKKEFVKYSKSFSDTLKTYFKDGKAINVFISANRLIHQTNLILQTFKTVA
UniProt Q6S5J6: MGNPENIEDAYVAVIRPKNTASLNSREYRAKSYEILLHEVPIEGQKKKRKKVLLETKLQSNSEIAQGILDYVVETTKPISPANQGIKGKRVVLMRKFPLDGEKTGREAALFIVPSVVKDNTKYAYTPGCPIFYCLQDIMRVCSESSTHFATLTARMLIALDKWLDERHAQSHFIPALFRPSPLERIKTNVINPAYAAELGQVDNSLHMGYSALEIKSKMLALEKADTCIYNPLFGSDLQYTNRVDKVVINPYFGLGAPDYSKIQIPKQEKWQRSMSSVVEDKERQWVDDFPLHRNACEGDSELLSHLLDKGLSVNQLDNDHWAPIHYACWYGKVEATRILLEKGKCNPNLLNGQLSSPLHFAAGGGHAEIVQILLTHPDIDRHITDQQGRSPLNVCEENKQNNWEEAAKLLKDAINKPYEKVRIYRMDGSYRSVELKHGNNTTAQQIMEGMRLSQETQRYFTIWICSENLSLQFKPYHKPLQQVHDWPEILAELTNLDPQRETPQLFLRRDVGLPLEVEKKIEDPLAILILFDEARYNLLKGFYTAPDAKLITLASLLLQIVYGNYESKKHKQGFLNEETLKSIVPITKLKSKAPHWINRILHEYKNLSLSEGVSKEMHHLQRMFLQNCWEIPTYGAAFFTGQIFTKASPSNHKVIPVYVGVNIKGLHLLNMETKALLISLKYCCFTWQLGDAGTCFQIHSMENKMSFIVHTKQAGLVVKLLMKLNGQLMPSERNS
UniProt Q8K2Y9: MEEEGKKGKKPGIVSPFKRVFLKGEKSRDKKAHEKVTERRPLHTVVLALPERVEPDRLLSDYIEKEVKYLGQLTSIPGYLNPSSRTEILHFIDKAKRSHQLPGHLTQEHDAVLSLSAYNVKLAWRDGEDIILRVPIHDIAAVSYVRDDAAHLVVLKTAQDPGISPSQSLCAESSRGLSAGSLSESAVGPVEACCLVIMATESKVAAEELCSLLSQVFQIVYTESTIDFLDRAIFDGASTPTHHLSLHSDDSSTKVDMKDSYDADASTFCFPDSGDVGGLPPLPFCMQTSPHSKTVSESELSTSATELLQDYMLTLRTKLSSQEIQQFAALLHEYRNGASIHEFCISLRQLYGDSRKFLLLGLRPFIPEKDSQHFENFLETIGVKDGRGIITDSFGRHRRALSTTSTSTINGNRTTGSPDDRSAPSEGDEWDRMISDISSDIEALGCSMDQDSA

| binding [1] | binding [2] | Substance |
| --- | --- | --- |
| no binding | – | FLAG-tagged Krit1 (CCM1) (from UniProt Q6S5J6 1-736) |
| no binding | binds | FLAG-tagged OSM (CCM2) (from UniProt Q8K2Y9 1-453) |
